{"sequences": {"note": "Protein sequences, listed by entry. Tags and fused reporters are not part of them. Chains listed by the source or under a name are the forms on record and can include a tag or linker.", "UniProt P42858, with tags, fused parts or gaps DUP37-38": "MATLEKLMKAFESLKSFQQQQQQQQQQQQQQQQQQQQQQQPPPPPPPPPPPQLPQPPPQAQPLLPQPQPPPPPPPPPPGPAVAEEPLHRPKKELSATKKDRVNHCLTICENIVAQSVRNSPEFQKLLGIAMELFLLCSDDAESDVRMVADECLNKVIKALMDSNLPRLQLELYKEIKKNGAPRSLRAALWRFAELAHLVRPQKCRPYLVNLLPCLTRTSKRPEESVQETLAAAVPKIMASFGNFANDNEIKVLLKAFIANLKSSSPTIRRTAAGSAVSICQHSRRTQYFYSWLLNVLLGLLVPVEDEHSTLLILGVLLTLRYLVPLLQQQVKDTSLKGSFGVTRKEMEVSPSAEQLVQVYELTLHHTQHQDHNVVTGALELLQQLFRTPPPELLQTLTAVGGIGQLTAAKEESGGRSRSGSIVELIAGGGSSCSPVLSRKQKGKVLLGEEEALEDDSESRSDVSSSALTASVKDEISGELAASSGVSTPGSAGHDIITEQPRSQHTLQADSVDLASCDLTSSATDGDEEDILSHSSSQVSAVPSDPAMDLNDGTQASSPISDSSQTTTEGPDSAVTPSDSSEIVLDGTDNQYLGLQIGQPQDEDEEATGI"}, "source": "patent US10406197B2", "about": "“Substances and methods for the use in prevention and/or treatment in Huntington's disease” (AFFIRIS AG, priority 2014, dated 2019)", "target": "T1, recombinant 610 amino acids N-terminal Huntingtin fragment (recHTT610) (Homo sapiens, UniProt P42858, DUP37-38)", "T1 construct": "the N-terminal 610 aminoacids of human Huntingtin protein extended by two C-terminal V5 tags; made in house; host or cells: HEK293 freestyle cells, transient transfection with precHTT610; NP-40 lysate captured on an anti-V5 coated plate", "experiment": "Protein capture ELISA against recHTT610", "assay_type": "binding", "settings": "recHTT610 capture ELISA of preselected mAB candidates", "method": "A DNA covering the coding region of the N-terminal 610 aminoacids of human Huntingtin protein extended by two C-terminal V5 tags were synthesized and cloned via XbaI and BamHI restriction sites into eukaryotic expression vector pCDH-EF1-MCS IRES Puro (SBI; CatNr. CD532A1) yielding plasmid precHTT610. Cloning procedures were performed according to standard molecular biology procedures essentially as indicated by manufacturers including restriction digestions and ligation reactions (NEB Quick ligase kit; CatNr. M2200L), bacterial transformation followed by clone selection and analysis. […] Protein concentrations were determined using Qubit (Invitrogen; CatNr.Q32866) according to the manufacturer's instructions.\nBinding of antibodies to N-terminal fragment HTT610 was determined by a standard protein capture ELISA procedure using Maxisorb™ ELISA plates (Thermo; CatNr. 439454), coated with 50 μl of a 1:5000 rabbit anti V5 mAB (Sigma, CatNr. V8137), blocking with blocking buffer (PBS, 1% BSA, 0.1% Tween 20), capturing of recombinant Huntingtin from HEK cell extracts (100 ng/μl total protein) followed by incubation with several dilutions of mouse anti HTT sera (1:100; 1:300 and 1:900) or with mAB2166 as reference (diluted 1:2000; Millipore, Cat Nr. MAB2166) for 1 hour at RT. […]", "note": "Some of these results come from one statement about several compounds together."}
{"molecule": "PRR13: monoclonal antibody, mouse IgG2a, generated by hybridoma technique using peptide p6773 as immunogen; VH/VL SEQ ID No. 62/63 (antibody, antibody sequence) VH: MGWSWVMLFLLSGTGGVLSEVQLQQSAPELVKPGASVKMSCKASGYSFTDFYMKWVKQSHGKGLEWIGDIDPKNGDTFYNQKFKGRATLTVDKSSSTAYMQLNSLTTEDSAVYYCATYYGYTMDYWGQGTSVTVSSAKTTAPSVYPLAPVCGDTTGSSVTLGCLVKGYF light: MDFQVQIFSFLLISASVIMSRGQIVLTQSPAIMSASLGERVTMTCTASSSVTSSYLHWYQQKPGSSPKLWIYSTSNLASGVPARFSGSGSGTSYSLTISSMEAEDAATYYCHQYRRPPRTFGGGTKLEIKRADAAPTVSIFPPSSEQLTSGGASVVCFLNNFYPR", "values": [{"measurement": "signal to noise ratio (recHTT610-specific signal : HEK ctrl extracts)", "result": ">= 4"}]}
